Measured values taken from article PMC13575423.
These are yes or no findings as the source states them, for the method shown.

Target: Trm10-Δ63 (S. cerevisiae) (UniProt Q12400)
Test: cross-linking; BS3 (50-fold molar excess), 6 μM Trm10 with 2 μM tRNA^Gly-GCC, with or without SAM; 20 mM HEPES pH 7.5, 150 mM NaCl, 5 mM BME; room temperature 30 min; SDS-PAGE, Coomassie; both purified

B1: Trm10-Δ63 (domain or fragment, UniProt Q12400 64-293)
chain: AKIQEYIDRGEEVPQELIREPRINVNQTDSGIEIILDCSFDELMNDKEIVSLSNQVTRAYSANRRANHFAEIKVAPFDKRLKQRFETTLKNTNYENWNHFKFLPDDKIMFGDEHISKDKIVYLTADTEEKLEKLEPGMRYIVGGIVDKNRYKELCLKKAQKMGIPTRRLPIDEYINLEGRRVLTTTHVVQLMLKYFDDHNWKNAFESVLPPRKLDAEAKSASSSPAPKDT
B1 was tested, and the binding was “no binding (tested: 6 μM Trm10 with 2 μM tRNA^Gly-GCC)”.
